PubChem BioAssay AID1159584 | Peter MacCallum Cancer Centre – 2016
Screen: 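Knock-downs that harm CDH1-null cells more than parental MCF10A cells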 (primary screen). Cells: human MCF10A breast epithelial cells, parental and CDH1-null. Reagents: siRNA against human genes. Detection: 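Cell viability by CellTiter-Glo ATP luminescence, each line scaled to the mean of mock wells across plates, then CDH1-null over parental ratio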. Scale: CDH1-null / parental viability ratio: higher = CDH1-null cells survive relatively better than parental; CDH1-null viability vs mock: higher = more viable CDH1-null cells. Units: CDH1-null viability vs mock in fraction of mock.
Here is one part, drawn at random, of about 18,000 reagents tested. Not all columns of the deposit are shown. The record does not give: the amount of reagent, the time to read-out.

SLC26A6
- CDH1-null / parental viability ratio: 1.48
- CDH1-null viability vs mock: 0.86

CD80
- CDH1-null / parental viability ratio: 0.92
- CDH1-null viability vs mock: 0.7

EXOC3L1
- CDH1-null / parental viability ratio: 1
- CDH1-null viability vs mock: 0.86

APBB3
- CDH1-null / parental viability ratio: 1
- CDH1-null viability vs mock: 0.95

PAQR8
- CDH1-null / parental viability ratio: 1.09
- CDH1-null viability vs mock: 0.48

ZSCAN5A
- CDH1-null / parental viability ratio: 1.06
- CDH1-null viability vs mock: 0.66

MEOX1
- CDH1-null / parental viability ratio: 1.18
- CDH1-null viability vs mock: 1.36

LRWD1
- CDH1-null / parental viability ratio: 0.99
- CDH1-null viability vs mock: 0.7

FAM221B
- CDH1-null / parental viability ratio: 1.51
- CDH1-null viability vs mock: 0.71

RLN1
- CDH1-null / parental viability ratio: 1.1
- CDH1-null viability vs mock: 0.68

SLC17A1
- CDH1-null / parental viability ratio: 0.93
- CDH1-null viability vs mock: 0.8

NTNG2
- CDH1-null / parental viability ratio: 1.1
- CDH1-null viability vs mock: 0.86

MAS1L
- CDH1-null / parental viability ratio: 0.89
- CDH1-null viability vs mock: 0.88

HTATIP2
- CDH1-null / parental viability ratio: 0.98
- CDH1-null viability vs mock: 0.94

MPIG6B
- CDH1-null / parental viability ratio: 0.94
- CDH1-null viability vs mock: 0.82

SEC14L2
- CDH1-null / parental viability ratio: 0.98
- CDH1-null viability vs mock: 0.9

IL17REL
- CDH1-null / parental viability ratio: 0.75
- CDH1-null viability vs mock: 0.7

RTL9
- CDH1-null / parental viability ratio: 1.01
- CDH1-null viability vs mock: 0.75

SLC13A2
- CDH1-null / parental viability ratio: 1.1
- CDH1-null viability vs mock: 0.74

C5AR2
- CDH1-null / parental viability ratio: 1.19
- CDH1-null viability vs mock: 0.8

SLCO1B3
- CDH1-null / parental viability ratio: 0.99
- CDH1-null viability vs mock: 0.89

PRKACG
- CDH1-null / parental viability ratio: 0.95
- CDH1-null viability vs mock: 0.88

SMPDL3B
- CDH1-null / parental viability ratio: 0.86
- CDH1-null viability vs mock: 1.02

PAX8
- CDH1-null / parental viability ratio: 0.96
- CDH1-null viability vs mock: 0.79

4 successive records from above:
SLC17A1
- CDH1-null / parental viability ratio: 0.93
- CDH1-null viability vs mock: 0.8

NTNG2
- CDH1-null / parental viability ratio: 1.1
- CDH1-null viability vs mock: 0.86

MAS1L
- CDH1-null / parental viability ratio: 0.89
- CDH1-null viability vs mock: 0.88

HTATIP2
- CDH1-null / parental viability ratio: 0.98
- CDH1-null viability vs mock: 0.94
